Measurements reported in article PMC10956065.
No constants are given. Whether binding was seen depends on the method and setting.

Chains of the proteins cited; added tags and fusions are not shown. Lines headed by an entry give the natural chain unless they say otherwise; changes in a name come on top. A line that says so, or that is headed by a name, gives the form on record, which may keep a tag or linker. Residues count along the entry.
recombinant truncated CHK2 WT (residues 70 to 512) (O96017, residues 70-512): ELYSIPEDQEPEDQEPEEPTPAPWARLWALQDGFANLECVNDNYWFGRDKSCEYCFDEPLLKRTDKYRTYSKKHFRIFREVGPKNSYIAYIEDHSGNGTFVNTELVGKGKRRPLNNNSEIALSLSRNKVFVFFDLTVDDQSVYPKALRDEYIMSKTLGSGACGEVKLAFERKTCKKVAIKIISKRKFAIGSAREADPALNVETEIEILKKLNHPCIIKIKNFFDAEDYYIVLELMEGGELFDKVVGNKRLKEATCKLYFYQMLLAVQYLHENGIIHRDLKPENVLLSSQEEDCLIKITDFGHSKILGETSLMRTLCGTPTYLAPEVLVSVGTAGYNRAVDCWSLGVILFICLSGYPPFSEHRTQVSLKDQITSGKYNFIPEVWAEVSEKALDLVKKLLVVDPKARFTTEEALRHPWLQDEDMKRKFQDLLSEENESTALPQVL
recombinant truncated CHK2 p.I157T (residues 70 to 512) (O96017-1, form named): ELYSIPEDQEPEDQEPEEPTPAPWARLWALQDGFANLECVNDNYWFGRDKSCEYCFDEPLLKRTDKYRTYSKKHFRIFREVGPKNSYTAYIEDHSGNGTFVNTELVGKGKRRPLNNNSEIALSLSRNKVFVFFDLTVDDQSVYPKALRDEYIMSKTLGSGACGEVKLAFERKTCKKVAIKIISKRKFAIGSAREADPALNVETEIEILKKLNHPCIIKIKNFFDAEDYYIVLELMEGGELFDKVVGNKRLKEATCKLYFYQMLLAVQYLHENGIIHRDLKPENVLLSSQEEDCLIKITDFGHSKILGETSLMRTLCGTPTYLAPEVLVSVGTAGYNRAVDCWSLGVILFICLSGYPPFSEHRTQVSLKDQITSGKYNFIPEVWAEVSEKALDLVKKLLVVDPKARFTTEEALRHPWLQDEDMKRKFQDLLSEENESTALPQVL

Assays:
[1] = target: recombinant truncated CHK2 WT (residues 70 to 512) (human) (UniProt O96017); assay: SEC; analytical SEC of the purified proteins; one major peak corresponding to 65 kDa; both purified
[2] = target: recombinant truncated CHK2 WT (residues 70 to 512) (human) (UniProt O96017); assay: dynamic light scattering; 0.15 mg·ml^−1 in SEC buffer, centrifuged at 10,000g; particle size at resting temperature (start of the 20 to 90 °C ramp) and at time 0 at 42 °C; both purified
[3] = target: recombinant truncated CHK2 p.I157T (residues 70 to 512) (human) (UniProt O96017); assay: SEC; analytical SEC of the purified proteins; one major peak corresponding to 65 kDa; both purified
[4] = target: recombinant truncated CHK2 p.I157T (residues 70 to 512) (human) (UniProt O96017); assay: dynamic light scattering; 0.15 mg·ml^−1 in SEC buffer, centrifuged at 10,000g; particle size at resting temperature (start of the 20 to 90 °C ramp) and at time 0 at 42 °C; both purified

binding [1] | binding [2] | binding [3] | binding [4] | Substance
no binding | no binding (tested: 0.15 mg·ml^−1) | – | – | recombinant truncated CHK2 WT (residues 70 to 512) (from UniProt O96017-1 70-512) (domain or fragment)
– | – | no binding | no binding (tested: 0.15 mg·ml^−1) | recombinant truncated CHK2 p.I157T (residues 70 to 512) (from UniProt O96017-1 70-512) (domain or fragment)
